The record followed here is PubChem BioAssay AID1347426 (Functional Genomics Laboratory (NCATS/FGL), 2020).

Screen size: about 31,000 sequences; about 1,400 (4.5%) were called active.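 How the source made its calls: active means median seed-adjusted z-score above 1 or below -1; inactive means the rest.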 The list shows a part of the results.

A short description of this experiment: Novel Modifiers of Survival Motor Neuron (SMN) Protein: Gene Identification via Genome-wide siRNA Screen.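 Further: luminescence tracks full-length SMN protein made from the SMN2 reporter.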 The following applies: HEK293T SMN2-luciferase reporter, siRNA knockdown, 72 h; actives lie on both sides. The method, boiled down:
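Each of three siRNAs per gene is reverse-transfected (1 pmol) into reporter HEK293T cells whose luciferase output tracks SMN protein level. After 72 h culture, ONE-Glo luminescence is control-normalized, log10-transformed and MAD-standardized; Common Seed Analysis deprioritizes seed-driven hits.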
(Reporter assays use an easily measured gene product as a stand-in for the process of interest.)
For the sequence CGCACAGUGCCUAACCCUATT against RAB26, the median seed-adjusted z-score was inactive: 0.171.
To GAAGAUCUCUGUGAGAAGATT against LRRC47 belongs inactive: 0.00856; to GCGAGUGGUUGGACAGAUATT against GPR128, inactive: -0.208.
To CGACUACUGCACAUCCAAATT against DHRS3 belongs inactive: 0.175.
Turning to GGCUUUACAUUCCUAAAGATT against SKIV2L2, the median seed-adjusted z-score was inactive: 0.642.
To CCCUUAAACUGGUUACAUATT against PIGB belongs inactive: 0.199; to GCCUGACCAUCGUGAGCAATT against APC2, inactive: 0.00354.
For GGCCUGUUCUCCAUCUACATT against TCIRG1, the median seed-adjusted z-score is inactive: 0.123.
Regarding GCAUUACAAAGAAUUUCGATT against BMP5, the median seed-adjusted z-score was inactive: 0.0733.
Then GGAGCUCUGUAAUACACCUTT against DCHS2, with inactive: 0.
To GGGCCUAUACUAUCACCAUTT against ITIH5L belongs inactive: -0.407; to GCAUCAUGAUGGGUCCCAATT against CATSPER1, inactive: 0.655; to GGAAUAGAUUUAACGGCUATT against SLC22A10, inactive: -0.0897.
On to CCUCGUUAUGAAGAACUAUTT against PINK1, for which the median seed-adjusted z-score was inactive: 0.192.
Then GGAUGAUGCUUUUGCUGGATT against LGI2, with inactive: 0; and GGAGGGCAUUGUCACUAAATT against MCM3, with inactive: 0.339.
Then GCAUAUUUGUAGUGAACGATT against PJA2, with inactive: 0; and GGAGAGUUAUGUGGAGUAATT against AFM, with inactive: 0; and AGUGCGUCAUCCUAAGGAATT against WDR1, with inactive: -0.457.
To GAUCAACGGUGGAUUUGGUTT against AMDHD2 belongs inactive: -0.0707; to AGUAUUUCAUUGUUGCAGATT against NAT5, inactive: -0.0124.
Take GGUCCUGUUUGAGACAGUATT against AP1G2: the median seed-adjusted z-score is inactive: 0.0657.
As to GCUCAUCUGUGACCUACGATT against GLB1, the median seed-adjusted z-score was inactive: -0.543.
As to UCGUGGACCUGGUCUGUUATT against OGDHL, the median seed-adjusted z-score was inactive: -0.0878.
Regarding GGAUGCACCAGACACCUAUTT against DNASE1, the median seed-adjusted z-score is inactive: -0.35.
For the sequence GUUAUUUGCUAAUUAGAUATT against GJB2, the median seed-adjusted z-score was inactive: -0.408.
To GCAAUUAACAAUUAUCGAUTT against RNASE3 belongs inactive: 0.588.
Then GGCUAGAGUUGCAACUACATT against EPRS, with inactive: -0.391.
To GCGCACAACUCACCCUUUATT against TYRP1 belongs inactive: 0.173; to AAGGAGCAGUGGAUACUGATT against MST1, active: -1.47; to CUGCAGGAAGGCUCAUAAATT against GNPTG, inactive: -0.401.
Turning to GCACGAAGGUCCAAGUCCATT against SFRS2, the median seed-adjusted z-score is inactive: 0.263.
Consider CCAUCGACUACAAACGGAATT against NDUFA13, for which the median seed-adjusted z-score was inactive: -0.138.
With GAUCCACACUUCAACGAUATT against CSNK2A2, the median seed-adjusted z-score was inactive: -0.155.
To CGGCCGCUCUAUAAGCUGATT against LLGL1 belongs active: -1.13.
For the sequence GCAUAAAUGAAAUCUCGGATT against ZMYND8, the median seed-adjusted z-score is inactive: -0.065.
In the case of CAACCAAUAUAGAACUUCATT against RBBP5, the median seed-adjusted z-score is inactive: 0.169.
With GCGUUGGUCGGGAUGAUUATT against P2RY10, the median seed-adjusted z-score was inactive: -0.432.
Then CAAUCAACCUGUUAAGCUUTT against TXNL1, with inactive: -0.554.
Regarding GUUAGUAUUUUUACGAGAATT against ZNF645, the median seed-adjusted z-score was inactive: 0.079.
Turning to GCAUGGAAAUCAACAUCCUTT against CCNB3, the median seed-adjusted z-score is inactive: 0.
GACCUGUACUUUGAGAACATT against MMEL1: the median seed-adjusted z-score was inactive: 0.325.
Then CAGUUGAUUUAAGAGGUAATT against PRPF4B, with active: -2.29; and GCAAGAAUCAGACCCAAUUTT against GLRA3, with inactive: 0.0585.
Regarding CGAUACGUCUUUACAAGAATT against INPP4A, the median seed-adjusted z-score was inactive: 0.379.
To CCUCGUUCCUCUACUGCAATT against PCDH9 belongs inactive: 0.165; to CAAGAGCACUUAGUGCACATT against USP45, inactive: -0.203.
With GGCUGUUCAUUGAUUGAGATT against GPR61, the median seed-adjusted z-score was inactive: 0.
To CAACCGGACGUACCACUUUTT against DDEFL1 belongs inactive: 0.293; to GGAGUGAAGUAAAACGGGATT against ITSN2, inactive: 0.933.
Take CUGGCUCUGUUUGUCCUCATT against SLC28A1: the median seed-adjusted z-score was inactive: 0.129.
Then GACUCUCAAUAAUCAUCAATT against ZNF157, with inactive: 0.137; and GGUUAGAACAAGAGGUAAATT against ROCK1, with inactive: -0.306; and CCACUACCAGAUCUAUUCUTT against PIK3R4, with inactive: -0.502.
In the case of CGACCCAACUACAACGUGATT against DNAJC6, the median seed-adjusted z-score was inactive: -0.265.
To CCGUUAAUAUAUACGAUGATT against TPP2 belongs inactive: -0.562; to GAGGAAUUCUUAAACCAGUTT against MAPK7, inactive: -0.0118; to CCUUUGAAGAUUUACGAGATT against NEDD4L, inactive: 0.212.
Take CUACUUAAUUGGGUGUAUATT against SLC9A10: the median seed-adjusted z-score is inactive: -0.0418.
To CGAGGGACAGUUCAACUGATT against IL13 belongs inactive: 0.435.
As to AGUAUACGCUGCCCUCAUATT against RNASE3, the median seed-adjusted z-score was inactive: 0.588.
In the case of GGAGAGCUGUUGGUACUUUTT against TAAR9, the median seed-adjusted z-score was active: -1.07.
To GCAGAGUUUCUUCAUCGAATT against DOCK11 belongs inactive: 0.293; to CAGCUAUAGCAGUAUAAGATT against PTPRK, inactive: 0; to GCUCUUCGGGAGAAUCUUUTT against CTNNAL1, inactive: 0.229.
Then AACCUAUCGUCACAACUUATT against ZNF492, with inactive: 0.0668.
Turning to GCUGAACAACGACUGCUCCTT against LYPD1, the median seed-adjusted z-score is inactive: -0.0713.
In the case of GGAUUUUGCCUUAGCGGUATT against OSBPL8, the median seed-adjusted z-score is inactive: 0.231.
Then GAUCUACACUUGGAUGGAUTT against SAP18, with active: 2.14.
